# Test results taken from the supplement of paper PMC3682954.
# “And” between values parts separate entries of the source, which are not always exact repeats. Identical values can stand only once. Counter-ions that a name gives are not always drawn. ± gives the standard deviation of the averaged measurements. This is one part of the list. Single values are uncertain, as repeats are few or missing.
# System: RAW 264.7
# Test: cell viability (MTT) relative to vehicle control; higher = more viable cells
# Conditions: stimulus: HMGB1 5 ug/ml, 18 h
# [1] = compound concentration: 1 ug/ml
Compound,cell viability [1] [%],cell viability (compound concentration: 3 uM)
O=c1ccc2cc3ccoc3cc2o1 [Psoralen],91.9,
c1ccc2c(c1)CCCC2C1=NCCN1 (stereo not given),,103%
c1ccc2c(c1)CCCC2C1=NCCN1 (stereo not given) [Tetrahydrozoline hydrochloride],,112 ± 2.9%
C[C@@H](O)[C@H]1C(=O)N2C(C(=O)O)=C(SCCNC=N)C[C@H]12 [Imipenem monohydrate],,101%
C[C@@H](O)[C@H]1C(=O)N2C(C(=O)O)=C(SCCNC=N)C[C@H]12 [Imipenem],,110 ± 12%
CCCCN1C[C@H](O)[C@@H](O)[C@H](O)[C@H]1CO [Miglustat],,93.1%
N[C@@H](CC(=O)O)C(=O)O [L-Aspartic acid],,110%
CC(C)(C)C(=O)OCOC(=O)[C@@H]1N2C(=O)[C@@H](/N=C/N3CCCCCC3)[C@H]2SC1(C)C [Pivmecillinam hydrochloride],,89.2%
"OCC(O)CN1CCN(c2ccccc2)CC1 (racemic) [Dropropizine (R,S)]",,96.2%
CNc1ncnc2c1ncn2[C@@H]1O[C@H](CO)[C@@H](O)[C@H]1O [N6-methyladenosine],,93.5%
CNc1ncnc2c1ncn2[C@@H]1O[C@H](CO)[C@@H](O)[C@H]1O [N6-Methyladenosine],,106%
"CC1(C)CCC=[N+]1[O-] [5,5-Dimethyl-1-pyrroline-N-oxide]",,107%
CCn1cc(C(=O)O)c(=O)c2cc(F)c(N3CCNCC3)nc21 [Enoxacin],,103.5 ± 0.21%
CCn1cc(C(=O)O)c(=O)c2cc(F)c(N3CCNCC3)nc21,,110%
CC(=O)OCC(=O)NCCCOc1cccc(CN2CCCCC2)c1,,99.7%
CC(=O)OCC(=O)NCCCOc1cccc(CN2CCCCC2)c1 [Roxatidine acetate],,98.7%
CC(=O)OCC(=O)NCCCOc1cccc(CN2CCCCC2)c1 [Roxatidine Acetate HCl],,121%
C=CCc1ccc(O)c(OC)c1 [Eugenol],95.5,
C=CCc1ccc(O)c(OC)c1,,110%
C=CC(N)CCC(=O)O (racemic) [(±)-gamma-Vinyl GABA],,121%
O=C(O)C1CCNCC1 [Isonipecotic acid],,96.7%

Compound,cell viability [1] [%],cell viability (compound concentration: 3 uM)
Nc1ncnc2c1ncn2C1CC(O)C(CO)O1 (stereo not given) [2'-Deoxyadenosine monohydrate],93.8,
Nc1ncnc2c1ncn2C1CC(O)C(CO)O1 (stereo not given) [2'-Deoxyadenosine hydrate],96.2,
CC1(C)CCC(NC(=O)[C@@H](N)CCC(=O)O)CC1,,113%
CCCc1ncc(C[n+]2ccccc2C)c(N)n1,,105%
CCCc1ncc(C[n+]2ccccc2C)c(N)n1 [Amprolium hydrochloride],,92.3%
O=C1NC(=O)C(c2ccccc2[N+](=O)[O-])=C1Nc1ccc(O)c(Cl)c1,,120%
CC(C)CSC[C@H]1O[C@@H](n2cnc3c(N)ncnc32)[C@H](O)[C@@H]1O [5'-Isobutylthio-5'-deoxyadenosine],101,
COc1ccc2c(C)cc(=O)oc2c1 [7-methoxy-4-methylcoumarin],95.3,
O=C1OC(c2ccc(O)cc2)(c2ccc(O)cc2)c2ccccc21,,107%
C[C@@H]1CN(CCCn2c3ccccc3c3ccccc32)C[C@H](C)N1 [Rimcazole],,93.2%
O=C(O)CN(CCN(CC(=O)O)CC(=O)O)CC(=O)O.[Na+].[Na+].[Na+],,112%
CC(C(=O)O)c1cccc(Oc2ccccc2)c1 (stereo not given) [Fenoprofen calcium salt dihydrate],,125%
CC(C(=O)O)c1cccc(Oc2ccccc2)c1 (stereo not given),,110%
CC(C(=O)O)c1cccc(Oc2ccccc2)c1 (stereo not given) [Fenoprofen],,93%
Oc1ccc(C2CNCCc3c2cc(O)c(O)c3Cl)cc1 (stereo not given) [Fenoldopam bromide],,106%
Oc1ccc(C2CNCCc3c2cc(O)c(O)c3Cl)cc1 (stereo not given),,92.1%
Oc1ccc(C2CNCCc3c2cc(O)c(O)c3Cl)cc1 (stereo not given) [Fenoldopam],,104%
CCc1ccc(CCOc2ccc(CC3SC(=O)NC3=O)cc2)nc1 (stereo not given) [Pioglitazone],,110 ± 29%
CC[n+]1c(/C=C/C=C2/N(C)c3ccccc3C2(C)C)sc2ccccc21,,27.3%
O=C(O)c1ccccc1-c1c2cc(I)c(=O)c(I)c-2oc2c(I)c(O)c(I)cc12,,119%
CC(C)(C)c1ccc(/C=C/C(=O)Nc2ccc3c(c2)OCCO3)cc1,,114%

Compound,cell viability [1] [%],cell viability (compound concentration: 3 uM)
NC(N)=NCCCC(N)C(=O)O (stereo not drawn) [D(-)-Arginine],102,
Cc1ccc(N(CC2=NCCN2)c2cccc(O)c2)cc1 [Phentolamine],,106%
Cc1ccc(N(CC2=NCCN2)c2cccc(O)c2)cc1 [Phentolamine mesylate],,110%
Cc1ccc(N(CC2=NCCN2)c2cccc(O)c2)cc1 [Phentolamine hydrochloride],,104%
Cc1ccc(N(CC2=NCCN2)c2cccc(O)c2)cc1,,104%
COC(=O)CCCC[C@@H]1SC[C@@H]2NC(=O)N[C@@H]21 [Biotin methyl ester],94.5,
CC(C)NCC(O)c1ccc(O)c(O)c1 (racemic) [(±)-Isoproterenol hydrochloride],,87.5%
CC(C)NCC(O)c1ccc(O)c(O)c1 (racemic) [Isoproterenol (Rac)],,114%
CO[C@H]1/C=C/O[C@@]2(C)Oc3c(C)c(O)c4c(O)c(c(/C=N/N5CCN(C)CC5)c(O)c4c3C2=O)NC(=O)/C(C)=C\C=C\[C@H](C)[C@H](O)[C@@H](C)[C@@H](O)[C@@H](C)[C@H](OC(C)=O)[C@@H]1C [Rifampicin],91.2,97.6 ± 14%
CO[C@H]1/C=C/O[C@@]2(C)Oc3c(C)c(O)c4c(O)c(c(/C=N/N5CCN(C)CC5)c(O)c4c3C2=O)NC(=O)/C(C)=C\C=C\[C@H](C)[C@H](O)[C@@H](C)[C@@H](O)[C@@H](C)[C@H](OC(C)=O)[C@@H]1C,,101%
CCCSc1ccc2[nH]c(NC(=O)OC)nc2c1,,76.1%
CCCSc1ccc2[nH]c(NC(=O)OC)nc2c1 [Albendazole],,86 ± 4.4%
Cc1c(Cl)cccc1Nc1ccccc1C(=O)O [Tolfenamic acid],,95.2 ± 8.6%
Cc1c(Cl)cccc1Nc1ccccc1C(=O)O,,104%
CC1=C(/C=C/C(C)=C/C=C/C(C)=C/C=C/C=C(C)/C=C/C=C(C)/C=C/C2=C(C)CCCC2(C)C)C(C)(C)CCC1 [beta-CAROTENE],,102%
CC[C@H]1OC(=O)[C@H](C)[C@@H](O[C@H]2C[C@@](C)(OC)[C@@H](O)[C@H](C)O2)[C@H](C)[C@@H](O[C@@H]2O[C@H](C)C[C@H](N(C)C)[C@H]2O)[C@](C)(O)C[C@@H](C)C(=O)[C@H](C)[C@@H](O)[C@]1(C)O [Erythromycin],,105%
CC[C@H]1OC(=O)[C@H](C)[C@@H](O[C@H]2C[C@@](C)(OC)[C@@H](O)[C@H](C)O2)[C@H](C)[C@@H](O[C@@H]2O[C@H](C)C[C@H](N(C)C)[C@H]2O)[C@](C)(O)C[C@@H](C)C(=O)[C@H](C)[C@@H](O)[C@]1(C)O,,116% and 110%
CC[C@H]1OC(=O)[C@H](C)[C@@H](O[C@H]2C[C@@](C)(OC)[C@@H](O)[C@H](C)O2)[C@H](C)[C@@H](O[C@@H]2O[C@H](C)C[C@H](N(C)C)[C@H]2O)[C@](C)(O)C[C@@H](C)C(=O)[C@H](C)[C@@H](O)[C@]1(C)O [(-)-Erythromycin hydrate],81.3,
CC(C(=O)O)c1ccc(CC2CCCC2=O)cc1 (stereo not given) [loxoprofen],,95%
CC(C(=O)O)c1ccc(CC2CCCC2=O)cc1 (stereo not given),,98.4%
O=C(O)CCc1nc(-c2ccccc2)c(-c2ccccc2)o1 [Oxaprozin],,103 ± 5.6%

Compound,cell viability [1] [%],cell viability (compound concentration: 3 uM)
O=C(O)CCc1nc(-c2ccccc2)c(-c2ccccc2)o1,,95.1 ± 11%
O=C1c2ccccc2C(=O)C1c1ccccc1,,106%
O=C1c2ccccc2C(=O)C1c1ccccc1 [Phenindione],,80.2%
CC(C)[C@@H](C)/C=C/[C@@H](C)[C@H]1CC[C@H]2C3=CC=C4C[C@@H](O)CC[C@]4(C)[C@H]3CC[C@]12C [Ergosterol],109,
Clc1ccc2c(c1)C(N1CCNCC1)=Nc1ccccc1O2,,95%
Clc1ccc2c(c1)C(N1CCNCC1)=Nc1ccccc1O2 [Amoxapine],,100 ± 2.8%
OCCN1CCN(CCCN2c3ccccc3Sc3ccc(C(F)(F)F)cc32)CC1 [Fluphenazine dihydrochloride],,103 ± 6.3%
OCCN1CCN(CCCN2c3ccccc3Sc3ccc(C(F)(F)F)cc32)CC1,,97 ± 5.8%
OCCN1CCN(CCCN2c3ccccc3Sc3ccc(C(F)(F)F)cc32)CC1 [Fluphenazine],,121%
CC(C)(Oc1ccc(CCNC(=O)c2ccc(Cl)cc2)cc1)C(=O)O,,107%
CC(C)(Oc1ccc(CCNC(=O)c2ccc(Cl)cc2)cc1)C(=O)O [Bezafibrate],,105 ± 7.5%
NCCCCC(=O)O [5-Aminovaleric acid hydrochloride],,103%
c1ccc(CC2=NCCN2)cc1,,113%
c1ccc(CC2=NCCN2)cc1 [Tolazoline hydrochloride],,87.5%
O=C1C(c2c(O)[nH]c3ccccc23)=Nc2ccccc21,,72%
O=C(OCCN1CCOCC1)C1(c2ccccc2)CCCCC1,,102%
CC(C)C[C@H](NC(=O)[C@H](Cc1ccccc1)NC(=O)c1cnccn1)B(O)O [Bortezomib],,4.21%
COc1ccc(CC(C)NCC(O)c2ccc(O)c(NC=O)c2)cc1 (stereo not given),,93.9%
COc1ccc(CC(C)NCC(O)c2ccc(O)c(NC=O)c2)cc1 (stereo not given) [Formoterol],,98.7%
COc1ccc(CC(C)NCC(O)c2ccc(O)c(NC=O)c2)cc1 (stereo not given) [Formoterol fumarate],,125%
CCC(=O)O[C@H]1CC[C@H]2[C@@H]3CCc4cc(O)ccc4[C@H]3CC[C@]12C,,109%
